Source: patent publication US10487093B2, “Heterocyclic compounds, in particular 2-oxo-4,4,5,5,6,6,7,7-octahydrobenzoxazole derivatives, and their use as antibacterial compounds” (priority 2016, dated 2019)
Some of these results come from one statement about several compounds together.

The molecules below were run on E. coli MG1655 fluoroquinolone-mutant strains. Conditions: MG1655 S83L and MG1655 D87G versus parent MG1655; no significant loss.
Assay type: cell-based, Escherichia coli
For `COc1ccc2ccc(=O)n(CCN[C@H]3CC[C@H]4[C@H](C3)OC(=O)N4c3ncc4c(n3)NC(=O)CO4)c2n1` [Compound 67, 1-(2-{[(3aS,6S,7aS)-2-oxo-3-{7-oxo-6H,7H,8H-pyrimido[5,4-b][1,4]oxazin-2-yl}-octahydro-1,3-benzoxazol-6-yl]amino}ethyl)-7-methoxy-1,2-dihydro-1,8-naphthyridin-2-one], the “loss of activity (fold change) against the E. coli MG1655 fluoroquinolone-mutant strains” value (“loss of activity (fold change)” below) was at most 2 fold.
For `COc1ccc2ccc(=O)n(CCN[C@H]3CC[C@H]4[C@@H](C3)OC(=O)N4c3ncc4c(n3)NC(=O)CO4)c2n1` [Compound 16], the “loss of activity (fold change)” value was at most 2 fold.
`N#Cc1cnc2ccc(=O)n(CCN[C@H]3CC[C@H]4[C@H](C3)OC(=O)N4c3ccc4c(n3)NC(=O)CS4)c2c1` [Compound 77, 5-(2-{[(3aS,6S,7aS)-2-oxo-3-{3-oxo-2H,3H,4H-pyrido[3,2-b][1,4]thiazin-6-yl}-octahydro-1,3-benzoxazol-6-yl]amino}ethyl)-6-oxo-5,6-dihydro-1,5-naphthyridine-3-carbonitrile] was tested, and the “loss of activity (fold change)” value was at most 2 fold.
For `COc1cnc2ccc(=O)n(CCN[C@@H]3CC[C@@H]4[C@@H](C3)OC(=O)N4c3ccc4c(n3)NC(=O)CO4)c2n1` [Compound 87, (3aR,6R,7aR)-6-[(2-{3-methoxy-6-oxo-5H,6H-pyrido[2,3-b]pyrazin-5-yl}ethyl)amino]-3-{3-oxo-2H,3H,4H-pyrido[3,2-b][1,4]oxazin-6-yl}-octahydro-1,3-benzoxazol-2-one], the “loss of activity (fold change)” value was at most 2 fold.
For `NCCCOc1ccc2ccc(=O)n(CCN[C@H]3CC[C@H]4[C@@H](C3)OC(=O)N4c3ccc4c(n3)NC(=O)CO4)c2n1` [Compound 5, 1-(2-{[(3aS,6S,7aR)-2-oxo-3-{3-oxo-2H,3H,4H-pyrido[3,2-b][1,4]oxazin-6-yl}-octahydro-1,3-benzoxazol-6-yl]amino}ethyl)-7-(3-aminopropoxy)-1,2-dihydro-1,8-naphthyridin-2-one], the “loss of activity (fold change)” value was at most 2 fold.
For `COc1ccc2ccc(=O)n(CCCN[C@H]3CC[C@H]4[C@H](C3)OC(=O)N4c3ccc4c(n3)NC(=O)CO4)c2n1` [Compound 83, 1-(3-{[(3aS,6S,7aS)-2-oxo-3-{3-oxo-2H,3H,4H-pyrido[3,2-b][1,4]oxazin-6-yl}-octahydro-1,3-benzoxazol-6-yl]amino}propyl)-7-methoxy-1,2-dihydro-1,8-naphthyridin-2-one], the “loss of activity (fold change)” value was at most 2 fold.
For `COc1ncc2ccc(=O)n(CCN[C@H]3CC[C@H]4[C@@H](C3)OC(=O)N4c3ccc4c(n3)NC(=O)CO4)c2n1` [Compound 17, (3aS,6S,7aR)-6-[(2-{2-methoxy-7-oxo-7H,8H-pyrido[2,3-d]pyrimidin-8-yl}ethyl)amino]-3-{3-oxo-2H,3H,4H-pyrido[3,2-b][1,4]oxazin-6-yl}-octahydro-1,3-benzoxazol-2-one], the “loss of activity (fold change)” value was at most 2 fold.
In the case of `COc1ccc2ccc(=O)n(CCN[C@@H]3CC[C@@H]4[C@@H](C3)OC(=O)N4c3cc4c(nn3)OCCO4)c2n1` [Compound 49, 1-(2-{[(3aR,6R,7aR)-3-{6H,7H-[1,4]dioxino[2,3-c]pyridazin-3-yl}-2-oxo-octahydro-1,3-benzoxazol-6-yl]amino}ethyl)-7-methoxy-1,2-dihydro-1,8-naphthyridin-2-one], the “loss of activity (fold change)” value is reported as at most 2 fold.
In the case of `COc1ccc2ccc(=O)n(CCN[C@@H]3CC[C@@H]4[C@@H](C3)OC(=O)N4c3ncc4c(n3)NC(=O)CO4)c2n1` [Compound 44, 1-(2-{[(3aR,6R,7aR)-2-oxo-3-{7-oxo-6H,7H,8H-pyrimido[5,4-b][1,4]oxazin-2-yl}-octahydro-1,3-benzoxazol-6-yl]amino}ethyl)-7-methoxy-1,2-dihydro-1,8-naphthyridin-2-one], the “loss of activity (fold change)” value is reported as at most 2 fold.
With `NCCOc1ccc2ccc(=O)n(CCN[C@H]3CC[C@H]4[C@@H](C3)OC(=O)N4c3ccc4c(n3)NC(=O)CO4)c2c1` [Compound 9, 1-(2-{[(3aS,6S,7aR)-2-oxo-3-{3-oxo-2H,3H,4H-pyrido[3,2-b][1,4]oxazin-6-yl}-octahydro-1,3-benzoxazol-6-yl]amino}ethyl)-7-(2-aminoethoxy)-1,2-dihydroquinolin-2-one] the “loss of activity (fold change)” value was at most 2 fold.
With `COc1cnc2ccc(=O)n(CCCN[C@H]3CC[C@H]4[C@H](C3)OC(=O)N4c3ccc4c(n3)NC(=O)CS4)c2c1` [Compound 96, 1-(3-{[(3aS,6S,7aS)-2-oxo-3-{3-oxo-2H,3H,4H-pyrido[3,2-b][1,4]thiazin-6-yl}-octahydro-1,3-benzoxazol-6-yl]amino}propyl)-7-methoxy-1,2-dihydro-1,5-naphthyridin-2-one] the “loss of activity (fold change)” value was at most 2 fold.
`COc1ccc2ncc(=O)n(CCNC3CCC4C(C3)OC(=O)N4c3ccc4c(n3)NC(=O)CO4)c2n1` (stereo in doubt) [Compound 43, (3aR,6R,7aR)-6-[(2-{6-methoxy-3-oxo-3H,4H-pyrido[2,3-b]pyrazin-4-yl}ethyl)amino]-3-{3-oxo-2H,3H,4H-pyrido[3,2-b][1,4]oxazin-6-yl}-octahydro-1,3-benzoxazol-2-one] was tested, and the “loss of activity (fold change)” value was at most 2 fold.
`NCCOc1ccc2ccc(=O)n(CCN[C@H]3CC[C@H]4[C@@H](C3)OC(=O)N4c3ccc4c(n3)NC(=O)CO4)c2n1` [Compound 10, 1-(2-{[(3aS,6S,7aR)-2-oxo-3-{3-oxo-2H,3H,4H-pyrido[3,2-b][1,4]oxazin-6-yl}-octahydro-1,3-benzoxazol-6-yl]amino}ethyl)-7-(2-aminoethoxy)-1,2-dihydro-1,8-naphthyridin-2-one] was tested, and the “loss of activity (fold change)” value was at most 2 fold.
In the case of `O=C1COc2ccc(N3C(=O)O[C@H]4C[C@@H](NCCn5c(=O)ccc6ccc(OC(F)F)cc65)CC[C@@H]43)nc2N1` [Compound 101, 1-(2-{[(3aS,6S,7aS)-2-oxo-3-{3-oxo-2H,3H,4H-pyrido[3,2-b][1,4]oxazin-6-yl}-octahydro-1,3-benzoxazol-6-yl]amino}ethyl)-7-(difluoromethoxy)-1,2-dihydro quinolin-2-one], the “loss of activity (fold change)” value is reported as at most 2 fold.
For `O=C1COc2ccc(N3C(=O)O[C@@H]4C[C@H](NCCn5c(=O)cnc6ccc(F)cc65)CC[C@H]43)nc2N1` [Compound 86, 1-(2-{[(3aR,6R,7aR)-2-oxo-3-{3-oxo-2H,3H,4H-pyrido[3,2-b][1,4]oxazin-6-yl}-octahydro-1,3-benzoxazol-6-yl]amino}ethyl)-7-fluoro-1,2-dihydroquinoxalin-2-one], the “loss of activity (fold change)” value was at most 2 fold.
For `N#Cc1ccc2ccc(=O)n(CCN(CCN)[C@H]3CC[C@H]4[C@@H](C3)OC(=O)N4c3ccc4c(n3)NC(=O)CO4)c2c1` [Compound 58, 1-(2-{[(3aS,6S,7aR)-2-oxo-3-{3-oxo-2H,3H,4H-pyrido[3,2-b][1,4]oxazin-6-yl}-octahydro-1,3-benzoxazol-6-yl](2-aminoethyl)amino}ethyl)-2-oxo-1,2-dihydroquinoline-7-carbonitrile], the “loss of activity (fold change)” value was at most 2 fold.
With `COc1ccc2ccc(=O)n(CCCN[C@H]3CC[C@H]4[C@H](C3)OC(=O)N4c3ccc4c(n3)NC(=O)CS4)c2n1` [Compound 85, 1-(3-{[(3aS,6S,7aS)-2-oxo-3-{3-oxo-2H,3H,4H-pyrido[3,2-b][1,4]thiazin-6-yl}-octahydro-1,3-benzoxazol-6-yl]amino}propyl)-7-methoxy-1,2-dihydro-1,8-naphthyridin-2-one] the “loss of activity (fold change)” value was at most 2 fold.
With `NCCOc1ccc2ccc(=O)n(CCN[C@@H]3CC[C@@H]4[C@@H](C3)OC(=O)N4c3ccc4c(n3)NC(=O)CO4)c2c1` [Compound 23, 1-(2-{[(3aR,6R,7aR)-2-oxo-3-{3-oxo-2H,3H,4H-pyrido[3,2-b][1,4]oxazin-6-yl}-octahydro-1,3-benzoxazol-6-yl]amino}ethyl)-7-(2-aminoethoxy)-1,2-dihydroquinolin-2-one] the “loss of activity (fold change)” value was at most 2 fold.
For `O=C1COc2ccc(N3C(=O)O[C@H]4C[C@@H](NCCn5c(=O)ccc6ccc(OCCN7CCOCC7)cc65)CC[C@@H]43)nc2N1` [Compound 97, 1-(2-{[(3aS,6S,7aS)-2-oxo-3-{3-oxo-2H,3H,4H-pyrido[3,2-b][1,4]oxazin-6-yl}-octahydro-1,3-benzoxazol-6-yl]amino}ethyl)-7-[2-(morpholin-4-yl)ethoxy]-1,2-dihydroquinolin-2-one], the “loss of activity (fold change)” value was at most 2 fold.
For `O=C1COc2ccc(N3C(=O)O[C@@H]4C[C@H](NCCn5c(=O)ccc6ccc(O)cc65)CC[C@H]43)nc2N1` [Compound 20, 1-(2-{[(3aR,6R,7aR)-2-oxo-3-{3-oxo-2H,3H,4H-pyrido[3,2-b][1,4]oxazin-6-yl}-octahydro-1,3-benzoxazol-6-yl]amino}ethyl)-7-hydroxy-1,2-dihydroquinolin-2-one], the “loss of activity (fold change)” value was at most 2 fold.
For `Cc1ccc2ncc(=O)n(CCN[C@H]3CC[C@H]4[C@@H](C3)OC(=O)N4c3ccc4c(n3)NC(=O)CO4)c2c1` [Compound 27, 1-(2-{[(3aS,6S,7aR)-2-oxo-3-{3-oxo-2H,3H,4H-pyrido[3,2-b][1,4]oxazin-6-yl}-octahydro-1,3-benzoxazol-6-yl]amino}ethyl)-7-methyl-1,2-dihydroquinoxalin-2-one], the “loss of activity (fold change)” value was at most 2 fold.
For `COc1cnc2ccc(=O)n(CCN[C@H]3CC[C@H]4[C@H](C3)OC(=O)N4c3ccc4c(n3)NC(=O)CO4)c2c1` [Compound 42, 7-methoxy-1-{2-[(2-oxo-3-{3-oxo-2H,3H,4H-pyrido[3,2-b][1,4]oxazin-6-yl}-octahydro-1,3-benzoxazol-6-yl)amino]ethyl}-1,2-dihydro-1,5-naphthyridin-2-one], the “loss of activity (fold change)” value was at most 2 fold.
For `COc1ccc2ccc(=O)n(CCN[C@H]3CC[C@H]4[C@H](C3)OC(=O)N4c3ccc4c(n3)NC(=O)C(C)(C)O4)c2n1` [Compound 48, 1-(2-{[(3aS,6S,7aS)-3-{2,2-dimethyl-3-oxo-2H,3H,4H-pyrido[3,2-b][1,4]oxazin-6-yl}-2-oxo-octahydro-1,3-benzoxazol-6-yl]amino}ethyl)-7-methoxy-1,2-dihydro-1,8-naphthyridin-2-one], the “loss of activity (fold change)” value was at most 2 fold.
